# From patent US11229664B2, “Treatment of myelosuppression” (priority 2012, dated 2022)
# Values joined by “and” are separate entries in the source; they are usually repeats but may differ in a detail not shown here. Equal values may be shown once. This continues a long series; more values of the same kind are listed elsewhere.
# Key:
# [1] = system: BxPC-3 pancreas tumor cell line; test: BxPC-3 human pancreas tumor xenograft model: tumor weight, tumor growth inhibition (TGI); type: in vivo, female athymic nude mice; details: Group 2: ODSH 24 mg/kg BID, IV Days 1-11, SC Days 12-end
# Procedure: Compounds tested in the experiment were as follows. ODSH was made by Pyramid Laboratories, Inc. (Costa Mesa, Calif.). ODSH was provided at a stock concentration of 50 mg/ml and stored at room temperature until use. ODSH was diluted in a 0.9% NaCl solution (B. Braun Medical Inc., Irvine, Calif.) to a concentration of 2.4 mg/ml to deliver 24 mg/kg, in a 10 ml/kg dose volume when administered intravenously. A concentration of 4.8 mg/ml was formulated to deliver a 24 mg/kg dose at a 5 ml/kg dose volume when administered subcutaneously. ODSH was formulated fresh prior to each dose.
# Nab-paclitaxel was manufactured by Abraxis BioScience LLC (Bridgewater, N.J.) and diluted in a 0.9% NaCl solution to a concentration of 1.5 mg/ml to deliver 15 mg/kg, in a 10 ml/kg dose volume. All standard agent preparations were made fresh prior to their administration.
# BxPC-3 cells were obtained and prepared as follows. The BxPC-3 pancreas tumor cell line was received from American Type Culture Collection (ATCC, Manassas, Va.). Cultures were maintained in RPMI 1640 medium (Hyclone, Logan, Utah) supplemented with 5% fetal bovine serum. The cells were housed in a 5% CO2 atmosphere. The cultures were expanded in tissue culture flasks at a 1:3 split ratio until a sufficient amount of cells were harvested.
# BxPC-3 Human Pancreas Tumor Xenograft Model: Female athymic nude mice per treatment condition were inoculated subcutaneously in the right flank with 0.1 ml of a 50% RPMI 1640/50% Matrigel™ (BD Biosciences, Bedford, Mass.) mixture containing a suspension of BxPC-3 tumor cells (approximately 5×10^6 cells/mouse).
# Study Director V.1.7.54k (Study Log).
# Mean tumor growth inhibition (TGI) was calculated utilizing Formula A below (deaths were not included in the TGI calculations).
# All statistical analyses in the xenograft study were performed with GraphPad Prism® v4 software.
# neutrophils = test: Clinical trial, metastatic pancreatic cancer: absolute neutrophil count / neutropenia grade; type: in vivo, human; details: individual patients, ODSH adjunctive to gemcitabine and nab-paclitaxel
# Text: Male and non-pregnant, non-lactating, female patients, aged 18 to 75, with histologically confirmed metastatic adenocarcinoma of the pancreas were enrolled in the trial. […] Treatment consisted of a series of 28-day cycles, wherein the last day of one cycle (e.g., day 28, cycle 1) was immediately followed by the first day of the next cycle (e.g., day 1, cycle 2). […] Nab-paclitaxel and gemcitabine therapy was given as described in the prescribing information for Abraxane® and Gemzar®. See also, Von Hoff et al., 2011, J. […] As a substantially non-anticoagulant heparinoid, ODSH can be administered at a dose that is greater than the fully anticoagulant dose of unfractionated heparin, without concern for anticoagulant effect, as shown in the Results below. An initial run-in period was conducted in which ten patients were treated with the gemcitabine, nab-paclitaxel, and ODSH regimen described above. After all ten patients had completed at least one 28-day cycle, the data were reviewed and an open-label randomized study initiated, with two arms (ODSH arm and Control arm). In the ODSH arm, the dosing regimen was the same as in the run-in period (gemcitabine, nab-paclitaxel, and ODSH). In the Control arm, patients were given the same gemcitabine and nab-paclitaxel regimen as in the run-in period, but without ODSH. […] Platelet counts, total white blood cell counts, and absolute neutrophil counts were performed. Grading of thrombocytopenia and/or neutropenia was performed according to the following standards: [table]
substance,measurement,setting,value
"substantially 2-O, 3-O desulfated heparin [ODSH]",Tumor weight (individual mice),[1]; Day 4,162 mg
same,Tumor weight (individual mice),[1]; Day 8,218 mg
same,Tumor weight (individual mice),[1]; Day 11,149 mg
same,Tumor weight (individual mice),[1]; Day 15,206 mg
same,Tumor weight (individual mice),[1]; Day 18,778 mg
same,Tumor weight (individual mice),[1]; Day 22,358 mg
same,Tumor weight (individual mice),[1]; Day 26,509 mg
same,Tumor weight (individual mice),[1]; Day 30,697 mg
same,Tumor weight (individual mice),[1]; Day 33,908 mg
same,Tumor weight (individual mice),[1]; Day 36,"1,072 mg"
same,Neutrophil Values,neutrophils; Cycle 1 Day 1 (before treatment),4.0 ×10^3/μl blood and 6.2 ×10^3/μl blood and 4.5 ×10^3/μl blood
same,Neutrophil Values,neutrophils; Cycle 1 Day 8,1.0 ×10^3/μl blood and 4.0 ×10^3/μl blood and 2.2 ×10^3/μl blood
same,Neutrophil Values,neutrophils; Cycle 1 Day 15,1.3 ×10^3/μl blood and 3.9 ×10^3/μl blood and 0.9 ×10^3/μl blood
same,Neutrophil Values,neutrophils; Cycle 2 Day 1,3.4 ×10^3/μl blood and 8.3 ×10^3/μl blood and 1.9 ×10^3/μl blood
same,Neutrophil Values,neutrophils; Cycle 2 Day 8,2.3 ×10^3/μl blood and 1.7 ×10^3/μl blood and 1.8 ×10^3/μl blood
same,Neutrophil Values,neutrophils; Cycle 2 Day 15,2.7 ×10^3/μl blood and 2.4 ×10^3/μl blood
same,Neutrophil Values,neutrophils; Cycle 3 Day 1,3.1 ×10^3/μl blood and 3.4 ×10^3/μl blood
same,Neutrophil Values,neutrophils; Cycle 3 Day 8,1.8 ×10^3/μl blood and 1.5 ×10^3/μl blood (2×)
same,Neutrophil Values,neutrophils; Cycle 4 Day 1,3.8 ×10^3/μl blood and 4.4 ×10^3/μl blood
same,Neutrophil Values,neutrophils; Cycle 4 Day 8,2.6 ×10^3/μl blood and 1.5 ×10^3/μl blood
same,Neutrophil Values,neutrophils; Cycle 4 Day 15,2.9 ×10^3/μl blood and 1.1 ×10^3/μl blood
same,Neutrophil Values,neutrophils; Cycle 5 Day 1,5.0 ×10^3/μl blood and 2.0 ×10^3/μl blood
same,Neutrophil Values,neutrophils; Cycle 5 Day 8,0.9 ×10^3/μl blood
same,Neutrophil Values,neutrophils; Cycle 5 Day 15,2.3 ×10^3/μl blood and 1.0 ×10^3/μl blood
same,Neutrophil Values,neutrophils; Cycle 6 Day 1,5.2 ×10^3/μl blood and 2.2 ×10^3/μl blood
same,Neutrophil Values,neutrophils; Cycle 6 Day 8,3.7 ×10^3/μl blood and 0.9 ×10^3/μl blood
same,Neutrophil Values,neutrophils; Cycle 6 Day 15,1.2 ×10^3/μl blood and 1.1 ×10^3/μl blood
same,Neutrophil Values,neutrophils; Screen,7.6 ×10^3/μl blood
